{
  "source": "patent US10293053B2",
  "about": "(BlinkBio, Inc., priority 2016, dated 2019)",
  "test": "general procedure: solution-phase peptide synthesis; HATU",
  "conditions": "for step yield: late stage modification step",
  "data": [
    {"substance": "((2R,3R)-3-((S)-1-((3R,4S,5S)-4-((S)-2-((S)-2-(4-(hydroxydimethylsilyl)-N-methylbutanamido)-3-methylbutanamido)-N,3-dimethylbutanamido)-3-methoxy-5-methylheptanoyl)pyrrolidin-2-yl)-3-methoxy-2-methylpropanoyl)-L-phenylalanine", "values": [
      {"measurement": "crude LC-MS purity", "setting": "conjugation step", "value": 80, "unit": "%"},
      {"measurement": "step yield", "value": 33.4, "unit": "%"}
    ]},
    {"substance": "(R)—N-((3S,4R,5R)-1-((R)-2-((1S,2S)-3-(((1R,2S)-1-hydroxy-1-phenylpropan-2-yl)amino)-1-methoxy-2-methyl-3-oxopropyl)pyrrolidin-1-yl)-3-methoxy-5-methyl-1-oxoheptan-4-yl)-2-((R)-2-(3-(3-(hydroxydimethylsilyl)propyl)-1-methylureido)-3-methylbutanamido)-N,3-dimethylbutanamide", "values": [
      {"measurement": "step yield", "value": 40.8, "unit": "%"}
    ]},
    {"substance": "(R)—N-((3S,4R,5R)-1-((R)-2-((1S,2S)-3-(((1R,2S)-1-hydroxy-1-phenylpropan-2-yl)amino)-1-methoxy-2-methyl-3-oxopropyl)pyrrolidin-1-yl)-3-methoxy-5-methyl-1-oxoheptan-4-yl)-2-((R)-2-(4-(hydroxydimethylsilyl)-N-methylbutanamido)-3-methylbutanamido)-N,3-dimethylbutanamide", "values": [
      {"measurement": "step yield", "value": 45, "unit": "%"}
    ]},
    {"substance": "(S)—N-((3R,4S,5S)-1-((S)-2-((3R,4R,7S)-7-benzyl-13-hydroxy-4,13-dimethyl-5,8-dioxo-2-oxa-6,9-diaza-13-silatetradecan-3-yl)pyrrolidin-1-yl)-3-methoxy-5-methyl-1-oxoheptan-4-yl)-2-((S)-2-(dimethylamino)-3-methylbutanamido)-N,3-dimethylbutanamide", "values": [
      {"measurement": "step yield", "value": 32.5, "unit": "%"}
    ]}
  ]
}
